# Results from one PubChem assay

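Genome-wide siRNA knockdown in TC32 Ewing sarcoma cells, comparing luciferase light from an NR0B1-promoter reporter with a CMV-promoter reporter 48 hours after transfection.
Each siRNA was applied at 20 nM.
A z-score of the log NR0B1-over-CMV signal, less the median of siRNAs with the same seed; more negative means a stronger specific loss of the NR0B1 reporter.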

This is part of the screen; most of the strongest results are not listed here.
Sequences are the guide (antisense) strand, without overhang.

With UUCAUUCUCCAGUCGGAUC against KRT10 the assay gave seed-corrected z-score 0.9344. With UCCGUGUACACCUCAAAGG against ARAP1 the assay gave seed-corrected z-score -0.6855. For UUAAGUUCUUGAUUCUCGG against ZCCHC8 the result was seed-corrected z-score -0.1673. With AUAAUGACCAUAUUGAGCU against GABPB2 the assay gave seed-corrected z-score 0.749. For AAAUUAUAGAGUGUAUUCC against C1orf141 the result was seed-corrected z-score -0.8573. Result for AAAGUUGAAGCCCUUGUCC against MYRF was seed-corrected z-score 1.469. UUUGUCUAGAGGUUUUAAC against C16orf45 read seed-corrected z-score -0.08491.

For UAAAUGUUGUCAAAAGUAC against NAA50 the result was seed-corrected z-score -1.858. UUUCUUCAUGCCGACAACC against IRGQ read seed-corrected z-score -0.2429. UACGCGAUCACAAUAUCCU against THG1L read seed-corrected z-score -0.2447. UUUCAUGAGAGUGAUGCAG against TMEM196 gave seed-corrected z-score 0.4659. Result for AUUGUGUAUAAAAAGAUCA against PYCARD was seed-corrected z-score -0.3144. Result for AUCGGUGAAAAUCCAUCCC against CAMK2D was seed-corrected z-score -0.6907. Result for UCUGCUCACACCUCCACUC against CYB5D2 was seed-corrected z-score -0.02273.

UCAUCGAUGAUUAGAGGUG against UAP1 read seed-corrected z-score 0.08526. For UCUGGACAGAUGAUGAUUG against EVI2B the result was seed-corrected z-score 0.3071. With UCUUUUAUCAGCAGCCCGG against C14orf2 the assay gave seed-corrected z-score 1.645. Result for UCUCUCGGAGCUUAUAUCG against POLR2E was seed-corrected z-score -0.1522. With UCCGGUUAUAUAACCAGGC against EP300 the assay gave seed-corrected z-score 0.5627. For UUCACUGUAACUAUCACCU against TMEM50A the result was seed-corrected z-score 0.2839. AGAGAUACAGGCUUUGUAC against KRT6A read seed-corrected z-score 0.4861.

AAUCUUAGACUGAACAAUC against CKAP2 read seed-corrected z-score -0.953. For UAAAUAAUUAGUACAGUCA against SHISA3 the result was seed-corrected z-score -0.7277. UCCGCUUGGAUUAUGUUGG against AIMP2 read seed-corrected z-score -0.8429. With UCUUGGACCACGAUGUACU against SRGAP2 the assay gave seed-corrected z-score -0.09906. With UAAGCUUCACGAAUGGCCU against FCAR the assay gave seed-corrected z-score -0.3581. Result for UCUUCAUCAAACUCGACUC against GSTA4 was seed-corrected z-score -0.09589. UUAGUGAACUGAAUGCUGC against SLC4A9 gave seed-corrected z-score 0.6305.

The first 2 entries again:

* UUCAUUCUCCAGUCGGAUC against KRT10 | seed-corrected z-score 0.9344
* UCCGUGUACACCUCAAAGG against ARAP1 | seed-corrected z-score -0.6855

Data taken from PubChem BioAssay AID1159506, deposited by NCATS (2015).